Experimental data published in patent US20250277208A1, “Method of Peptide Library Construction and Peptides Thereof” (Alcamena Stem Cell Therapeutics, LLC, priority 2024, published 2025).
These are yes or no findings as the source states them, for the method shown.

Protein sequences, listed by entry. Tags and fused reporters are not part of them. Residues count along the entry.
UniProt P05231, residues 30-212: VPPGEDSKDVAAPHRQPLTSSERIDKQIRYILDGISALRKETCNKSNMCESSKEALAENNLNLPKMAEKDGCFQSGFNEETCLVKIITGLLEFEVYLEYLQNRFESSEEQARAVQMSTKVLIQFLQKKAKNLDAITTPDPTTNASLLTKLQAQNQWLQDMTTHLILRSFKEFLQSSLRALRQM

B1: Peptide 23 (peptide)
peptide: SVRDLLRMFCHIVG
B2: Peptide 20 (peptide)
peptide: SVRIYLRRMCHIVG
B3: Peptide 29 (peptide)
peptide: LGHRDLLRRMCHIVG
B4: Peptide 40 (peptide)
peptide: SVRDLLHGRCHIVG
B5: Peptide 31 (peptide)
peptide: SVRDLPRIMCHIVG
B6: Peptide 36 (peptide)
peptide: SNYTLLRRMCHIVG
B7: Peptide 21 (peptide)
peptide: SVRDLLNRICHIVG
B8: Peptide 46 (peptide)
peptide: SVRDLLRRMCHPRLG
B9: Peptide 22 (peptide)
peptide: SVRDPHNRMCHIVG
B10: Peptide 26 (peptide)
peptide: LEIRDLLRRMCHIVG
B11: Peptide 34 (peptide)
peptide: SVHIHLRRMCHIVG
B12: Peptide 42 (peptide)
peptide: GNSRDLLRRMCHIVG
B13: Peptide 41 (peptide)
peptide: NFRRDLLRRMCHIVG
B14: Peptide 25 (peptide)
peptide: SVRDLHKMMCHIVG

Target: Biotinylated recombinant human IL-6 (human) (UniProt P05231)
Assay: SPR (Biacore), IL-6 on chip

binding, no binding (tested: >10 µM):
B1
B2
B3
B4
B5
B6
B7
B8
B9
B10
B11
B12
B13
B14
